Over roughly 33,000 sequences, “E-score (-0.5 to 0.5)” has its median near -0.0034; the highest 2% begin near 0.25. The list shows a part of the results.
Each sequence was assayed against T1, Yap3 (UniProt P38749) (assay: PBM E-score (8-mer binding enrichment) (E-score (-0.5 to 0.5)); higher = stronger / more preferred TF binding). Conditions: protein concentration: 100 nM; construct: GST-full length.
T1 sequence: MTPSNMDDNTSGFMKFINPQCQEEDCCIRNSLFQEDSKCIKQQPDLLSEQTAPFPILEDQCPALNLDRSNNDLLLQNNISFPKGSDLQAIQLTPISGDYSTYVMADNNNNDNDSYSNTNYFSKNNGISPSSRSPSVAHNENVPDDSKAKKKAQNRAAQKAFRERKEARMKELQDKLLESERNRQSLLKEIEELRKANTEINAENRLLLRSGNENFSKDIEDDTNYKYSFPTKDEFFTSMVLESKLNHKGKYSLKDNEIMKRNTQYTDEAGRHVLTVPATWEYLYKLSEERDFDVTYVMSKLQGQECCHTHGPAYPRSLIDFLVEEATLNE
Method in brief: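 Universal all-10-mer Agilent arrays, double-stranded by primer extension on fresh or once-stripped slides, were probed with about 100-200 nM GST-tagged yeast transcription factors made by PURExpress. Fluorescent anti-GST detected bound protein, and masliner normalised the scans. E-scores from the Universal PBM Analysis Suite were given to each ungapped eight-base word pooled with its reverse complement.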

Sequence | PBM E-score
TAATGAGA | 0.164
CAAGTCTA | -0.096
TAGGGCGA | -0.0266
GGCTCTCA | -0.204
CATACTTA | -0.0208
AGTGATTA | 0.222
AATCTGAC | 0.0221
CCCTCCGA | -0.242
AACACCCC | -0.0613
AAACCGGA | 0.0608
AACCTTTA | -0.0204
CCGTCCTC | -0.189
CTTACGGC | -0.0983
CTGGCGCA | -0.29
GCTTTGCA | -0.15
GACGAGTA | 0.0381
AGAGTTAT | 0.0954
GACACAGC | 0.0142
CCCCCGCC | -0.395
GTGCCCAC | -0.126
CCAAGTAA | 0.159
CTTTTAGA | 0.123
ATAGTATG | 0.134
ATAACCTC | 0.0424
CAGTGTAG | 0.0542

Sequence | PBM E-score
ACTTACGA | 0.315
AGGGTGGA | -0.0977
GAAAAACA | 0.094
GGAACTAC | -0.162
CGGGAAGC | -0.0211
ACCTCAAA | 0.129
CCCTGGCA | -0.15
TAGGAGGA | -0.131
CACCCGCC | -0.00919
CTAGGCTC | -0.278
ACCGCGTG | -0.184
CGTCCAAC | 0.0756
ATATATAT | 0.231
GCTCACAA | 0.0362
ATATCAAC | 0.166
CAGCATGA | -0.0544
AAATATCT | 0.149
ACCGGGTA | -0.034
GTCCCGAA | -0.152
AAGACACA | -0.133
AGAACGAG | 0.0754
TCCAGGCA | 0.0398
CGATGTCA | -0.0979
ACGTCTCT | -0.138
AACGCTAG | -0.236

Sequence | PBM E-score
CCATCATC | 0.0379
GTGCCTCA | -0.275
GGTGGAAA | -0.0239
GGCTTCGA | 0.00044
CACAAAGA | 0.0747
ACGTAGAT | 0.131
AGGACCAC | -0.172
GATTCCAC | 0.0304
GGCGGGAC | -0.22
ACCTCGTC | -0.0365
CGCGCCAG | -0.207
GTCCTTTA | -0.109
AAGGTGAC | -0.0903
AAAGATTC | 0.0893
CTAACATA | 0.204
GTCGCAAC | 0.138
GGATAATA | 0.0461
CAATACTC | 0.247
ATGAGCTC | -0.107
CGATGGGC | -0.18
CTAGAAAA | 0.101
CTCTGTTC | 0.0348
CACGCGGC | 0.0723
GCTAAAGA | 0.128
TCTGATAA | 0.116

Sequence | PBM E-score
TATCCAAA | 0.189
GGTAAAAA | 0.0596
ACTGTCGC | -0.0888
AAGGACAC | -0.0338
CCCAAGCA | -0.0628
CATACAGC | -0.0905
GAAGCTCC | -0.0847
AGTCGTAA | 0.2
GCCACGGC | -0.145
GGGAGCAA | -0.201
GCTCCAGC | -0.037
CCTCTCTA | -0.359
CTCTTGTA | 0.00253
GGCACGGA | -0.164
CTCCATAC | -0.0796
ACACTAGG | 0.0672
GACGCTTA | -0.193
GCGCGTGA | 0.0681
AAAACCAC | 0.0635
GGGTACAC | -0.129
GATAGGGC | -0.203
GCGATTTA | 0.0749
AGCTGGCC | -0.0947
AAAGGAAT | 0.0347
AGCCACTG | -0.0224

Sequence | PBM E-score
CATCCTAC | 0.0202
GAATCTAA | 0.101
CCCCCGAA | -0.199
TAGTCACA | 0.215
CCCGTATC | -0.2
CTAAGGAG | -0.0861
GCCGGAAA | 0.0689
GAGCCTCA | -0.19
GGTTGCAC | -0.0143
ACGGCTAT | -0.0939
CCGTTGTC | 0.0985
AAAATTGG | 0.175
GGGCTCGA | -0.113
AACACAGA | 0.0145
GGTGGTTA | -0.0196
CAGTAGAC | 0.0368
GAATTAAC | 0.169
CTGGTTGC | 0.0829
CACGGCGC | -0.0839
AATAGAAT | 0.114
GGTACACC | -0.114
ATCACTAG | -0.0737
CCATCGTC | -0.01
CACTGGTA | 0.0635
GTACGCAC | -0.0905

Sequence | PBM E-score
GAGTCCAA | 0.00148
CAGCTGTA | -0.0416
TATTCGAA | 0.137
CACCGGTA | -0.11
TGACGGCA | -0.119
CAACAGAC | 0.0249
AATGTACT | 0.125
CTAGTCCC | -0.136
CAGAAAAC | 0.133
GTCAACAC | 0.00939
ACGGCTCG | 0.0605
AATTGCCC | 0.0007
ACTTCTCT | -0.0355
CTGACTTA | 0.16
ACTGTCAA | 0.118
ATGGTGCA | 0.0162
ATAGAGCG | -0.0662
CTTGAGTC | -0.145
GAGACGGA | 0.0162
TACCGTGA | -0.0317
CTTACATC | 0.077
CCAGAACG | 0.048
ACCGGTCA | -0.0676
ATCGCCCG | -0.262
AGCAGGCT | -0.268

Sequence | PBM E-score
ATGATAAC | 0.159
GGCTTCCA | -0.271
ACAACGTC | -0.14
ATGCAACG | 0.00916
AGGTATGA | 0.168
GGATTCCA | 0.14
CACGGGTC | -0.106
CGCCCCTC | -0.333
CACCATGA | -0.00372
ATCACATA | 0.214
CAGATCTA | -0.121
GACGGTAC | 0.0228
GATGAGCC | -0.131
AAATGATG | 0.168
AACGACAA | 0.0824
GACGGAGC | -0.217
ACAATCAA | 0.174
CCCTAGCG | -0.333
AATGCTCA | 0.0457
CTCCCTAA | -0.136
AGCGAAGG | -0.144
CCGTTATC | 0.0476
ATCGGTGA | 0.144
CACATTCG | 0.0393
AGTCCACG | -0.215

Looked up one by one from the entries so far (six):
Sequence | PBM E-score
CGCCCCTC | -0.333
CACCCGCC | -0.00919
GGAACTAC | -0.162
AGTGATTA | 0.222
GGTGGTTA | -0.0196
GAAGCTCC | -0.0847

Next records

Sequence | PBM E-score
ATTACCGA | 0.247
AGATTATC | 0.0919
AATTGCTC | 0.00272
ACTGATCA | 0.131
ATGACCGC | -0.00708
CTTTCCGA | -0.0334
CGCGAACA | 0.0182
CATCGCAG | -0.192
GCCGTCCA | 0.00485
AGACGCTG | -0.136
GGGTGTTA | 0.0449
CCGCTTTA | 0.11
GCCCGAAA | 0.189
ATAGATTA | 0.348
AGCTCTAC | 0.0914
ACTAGCAG | 0.104
CTGTAGTC | -0.108
CCGAGAAA | 0.225
ATGCTGCC | 0.00746
ATACTAAG | 0.0625
CCTTGCCA | -0.0387
GAATTCCC | -0.0312
GCCTCTAC | -0.0717
GAAGCGCA | -0.0437
GTCGTAAC | 0.0313

Sequence | PBM E-score
AGCCCTTA | -0.0423
ACCGATAA | 0.156
CCAGCAGC | -0.172
AGGGTCAA | 0.0461
ATAAGTTA | 0.245
GGTAATAC | 0.208
CAGCTATA | -0.0127
GCGTAAGC | -0.0375
CCGTGTAG | -0.0145
ATGCATAG | -0.0028
CGCTAAGA | -0.0966
CAACCATA | 0.161
CTCAGTCC | -0.232
CGAATCAA | 0.194
CGCGTGCA | -0.073
GCTAATAA | 0.144
AGAAAAGG | 0.0998
ATAAACGG | 0.205
TACATACA | 0.209

— the supplement of paper PMC3334620
